Laboratory results: article PMC3853298
Positions count from the first letter of the chain named. In names and notes the source's numbering stands. Results are given in words; binding and its absence hold for the method and conditions named. Some results given as binding are weak or reduced against the parent protein; the word gives no strength.

Amino acid sequences for entries named in this document (tags omitted). A change or cut given only in a name is not applied to a line headed by its entry.
UniProt P02454: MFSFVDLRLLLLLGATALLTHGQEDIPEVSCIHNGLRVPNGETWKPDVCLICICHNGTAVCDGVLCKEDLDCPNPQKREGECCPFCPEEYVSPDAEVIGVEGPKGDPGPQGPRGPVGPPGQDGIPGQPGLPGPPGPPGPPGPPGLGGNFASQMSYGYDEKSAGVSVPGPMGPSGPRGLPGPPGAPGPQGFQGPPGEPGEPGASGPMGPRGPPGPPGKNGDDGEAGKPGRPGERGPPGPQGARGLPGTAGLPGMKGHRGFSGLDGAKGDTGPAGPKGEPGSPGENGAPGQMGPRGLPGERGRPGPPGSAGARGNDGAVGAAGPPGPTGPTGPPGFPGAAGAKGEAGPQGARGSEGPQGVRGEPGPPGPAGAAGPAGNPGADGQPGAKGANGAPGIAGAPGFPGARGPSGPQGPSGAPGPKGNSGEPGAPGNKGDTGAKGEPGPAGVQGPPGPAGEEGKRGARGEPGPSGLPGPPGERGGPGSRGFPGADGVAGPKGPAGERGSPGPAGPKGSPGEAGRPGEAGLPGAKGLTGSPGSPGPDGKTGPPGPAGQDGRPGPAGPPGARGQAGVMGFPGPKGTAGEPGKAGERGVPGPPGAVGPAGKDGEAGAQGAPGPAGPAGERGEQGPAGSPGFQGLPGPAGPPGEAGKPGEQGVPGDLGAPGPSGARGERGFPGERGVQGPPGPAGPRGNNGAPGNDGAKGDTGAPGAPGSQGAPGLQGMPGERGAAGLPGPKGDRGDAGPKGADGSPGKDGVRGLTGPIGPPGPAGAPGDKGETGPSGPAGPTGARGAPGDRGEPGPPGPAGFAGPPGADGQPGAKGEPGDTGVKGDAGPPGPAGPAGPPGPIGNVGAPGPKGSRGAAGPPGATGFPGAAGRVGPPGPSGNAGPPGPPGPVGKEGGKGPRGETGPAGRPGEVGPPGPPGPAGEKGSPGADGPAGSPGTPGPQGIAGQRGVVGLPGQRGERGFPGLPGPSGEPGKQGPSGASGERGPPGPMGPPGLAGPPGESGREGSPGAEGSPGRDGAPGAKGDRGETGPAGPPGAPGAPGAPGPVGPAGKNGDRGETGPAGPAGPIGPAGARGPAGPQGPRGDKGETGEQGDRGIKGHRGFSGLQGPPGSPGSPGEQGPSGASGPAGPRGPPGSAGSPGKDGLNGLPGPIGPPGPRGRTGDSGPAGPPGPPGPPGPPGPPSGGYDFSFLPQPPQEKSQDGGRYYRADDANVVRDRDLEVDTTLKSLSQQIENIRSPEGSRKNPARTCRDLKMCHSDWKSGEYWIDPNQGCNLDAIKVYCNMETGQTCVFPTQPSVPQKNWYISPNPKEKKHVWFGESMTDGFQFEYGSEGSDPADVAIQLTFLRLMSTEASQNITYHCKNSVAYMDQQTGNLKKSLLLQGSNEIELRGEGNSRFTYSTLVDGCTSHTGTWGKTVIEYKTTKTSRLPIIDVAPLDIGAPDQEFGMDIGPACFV
UniProt P02466: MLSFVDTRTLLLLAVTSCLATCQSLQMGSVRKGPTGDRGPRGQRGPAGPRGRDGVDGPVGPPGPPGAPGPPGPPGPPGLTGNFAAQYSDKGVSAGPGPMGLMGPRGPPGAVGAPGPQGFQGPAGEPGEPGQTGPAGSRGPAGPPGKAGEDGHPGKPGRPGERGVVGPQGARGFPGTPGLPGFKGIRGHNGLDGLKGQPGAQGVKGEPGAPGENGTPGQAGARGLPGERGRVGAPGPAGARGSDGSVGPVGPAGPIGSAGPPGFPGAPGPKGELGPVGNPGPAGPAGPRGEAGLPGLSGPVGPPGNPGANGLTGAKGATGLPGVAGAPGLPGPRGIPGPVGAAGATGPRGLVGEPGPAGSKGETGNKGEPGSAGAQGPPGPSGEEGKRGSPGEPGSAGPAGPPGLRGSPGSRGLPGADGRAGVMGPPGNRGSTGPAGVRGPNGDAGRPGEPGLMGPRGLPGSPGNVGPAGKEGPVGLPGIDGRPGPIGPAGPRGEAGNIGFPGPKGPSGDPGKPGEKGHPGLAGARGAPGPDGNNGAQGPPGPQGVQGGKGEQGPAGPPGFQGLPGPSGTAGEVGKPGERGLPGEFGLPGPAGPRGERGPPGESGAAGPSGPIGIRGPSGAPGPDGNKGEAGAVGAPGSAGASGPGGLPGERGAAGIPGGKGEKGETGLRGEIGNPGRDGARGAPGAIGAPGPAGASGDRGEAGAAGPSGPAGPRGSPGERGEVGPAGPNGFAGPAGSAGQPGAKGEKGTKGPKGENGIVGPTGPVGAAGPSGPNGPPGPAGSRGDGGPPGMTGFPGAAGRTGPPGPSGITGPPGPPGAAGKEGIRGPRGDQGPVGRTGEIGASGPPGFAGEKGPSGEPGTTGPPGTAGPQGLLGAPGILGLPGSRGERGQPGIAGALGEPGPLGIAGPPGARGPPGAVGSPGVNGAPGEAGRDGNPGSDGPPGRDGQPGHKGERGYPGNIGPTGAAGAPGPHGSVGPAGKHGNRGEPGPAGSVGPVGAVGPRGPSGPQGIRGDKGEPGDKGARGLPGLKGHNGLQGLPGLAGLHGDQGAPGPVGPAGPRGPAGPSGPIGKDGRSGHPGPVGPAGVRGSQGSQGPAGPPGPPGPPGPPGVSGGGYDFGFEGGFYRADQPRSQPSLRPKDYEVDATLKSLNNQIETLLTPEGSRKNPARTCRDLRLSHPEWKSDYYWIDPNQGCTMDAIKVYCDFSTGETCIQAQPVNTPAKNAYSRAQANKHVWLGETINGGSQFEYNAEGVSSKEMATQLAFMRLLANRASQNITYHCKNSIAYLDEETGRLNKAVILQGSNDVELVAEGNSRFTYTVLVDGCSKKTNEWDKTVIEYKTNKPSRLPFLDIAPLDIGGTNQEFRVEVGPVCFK

B1: mouse decorin core protein, wild type (residues 45-354) (domain or fragment, UniProt P28654 45-354)
chain: APLALISMCPYRCQCHLRVVQCSDLGLDKVPWDFPPDTTLLDLQNNKITEIKEGAFKNLKDLHTLILVNNKISKISPEAFKPLVKLERLYLSKNQLKELPEKMPRTLQELRVHENEITKLRKSDFNGLNNVLVIELGGNPLKNSGIENGAFQGLKSLSYIRISDTNITAIPQGLPTSLTEVHLDGNKITKVDAPSLKGLINLSKLGLSFNSITVMENGSLANVPHLRELHLDNNKLLRVPAGLAQHKYIQVVYLHNNNISAVGQNDFCRAGHPSRKASYSAVSLYGNPVRYWEIFPNTFRCVYVRSAIQLGNYKAAA
modifications: N-linked glycans (four consensus sites for N-linked glycosylation)
B2: mouse decorin core protein Y51A/R52A/Q54A (residues 45-354) (domain or fragment, UniProt P28654 45-354)
chain: B1 chain with Y11A, R12A, Q14A
modifications: N-linked glycans (four consensus sites for N-linked glycosylation)

Molecular target: rat tail type I collagen (rat) (UniProt P02454+P02466)
Assay: ELISA; solid-phase binding assay: rat tail type I collagen coated on Maxisorp plates (1.25 ug per well), blocked with kappa-casein in PBS with 0.05% Tween 20; decorin proteins incubated 3 h, detected by anti-His tag antibody-HRP; high and variable nonspecific binding reported; both purified

| Binder | binding |
| --- | --- |
| B1 | binds |
| B2 | binds |
